Measurements published in publication PMC11606324.

Sequences of proteins named here, by UniProt entry; tags and fusion partners are left off. A change or cut given only in a name is not applied to a line headed by its entry.
UniProt Q9M8T0: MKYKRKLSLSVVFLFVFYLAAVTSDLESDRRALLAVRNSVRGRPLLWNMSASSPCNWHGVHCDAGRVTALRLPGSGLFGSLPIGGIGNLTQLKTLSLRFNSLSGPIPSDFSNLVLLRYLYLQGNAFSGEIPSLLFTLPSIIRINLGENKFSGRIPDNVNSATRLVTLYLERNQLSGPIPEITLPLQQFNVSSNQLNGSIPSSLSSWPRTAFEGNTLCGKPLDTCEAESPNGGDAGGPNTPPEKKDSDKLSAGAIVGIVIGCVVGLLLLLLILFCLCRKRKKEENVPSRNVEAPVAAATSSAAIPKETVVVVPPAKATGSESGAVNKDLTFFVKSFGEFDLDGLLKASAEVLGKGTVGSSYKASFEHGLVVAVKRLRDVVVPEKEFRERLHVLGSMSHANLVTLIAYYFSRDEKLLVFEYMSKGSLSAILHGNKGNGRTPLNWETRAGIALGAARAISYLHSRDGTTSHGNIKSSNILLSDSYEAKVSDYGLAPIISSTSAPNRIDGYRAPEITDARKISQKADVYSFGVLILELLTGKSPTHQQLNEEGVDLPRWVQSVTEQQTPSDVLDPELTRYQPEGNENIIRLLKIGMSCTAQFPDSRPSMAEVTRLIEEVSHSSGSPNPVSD
UniProt Q9FMD7: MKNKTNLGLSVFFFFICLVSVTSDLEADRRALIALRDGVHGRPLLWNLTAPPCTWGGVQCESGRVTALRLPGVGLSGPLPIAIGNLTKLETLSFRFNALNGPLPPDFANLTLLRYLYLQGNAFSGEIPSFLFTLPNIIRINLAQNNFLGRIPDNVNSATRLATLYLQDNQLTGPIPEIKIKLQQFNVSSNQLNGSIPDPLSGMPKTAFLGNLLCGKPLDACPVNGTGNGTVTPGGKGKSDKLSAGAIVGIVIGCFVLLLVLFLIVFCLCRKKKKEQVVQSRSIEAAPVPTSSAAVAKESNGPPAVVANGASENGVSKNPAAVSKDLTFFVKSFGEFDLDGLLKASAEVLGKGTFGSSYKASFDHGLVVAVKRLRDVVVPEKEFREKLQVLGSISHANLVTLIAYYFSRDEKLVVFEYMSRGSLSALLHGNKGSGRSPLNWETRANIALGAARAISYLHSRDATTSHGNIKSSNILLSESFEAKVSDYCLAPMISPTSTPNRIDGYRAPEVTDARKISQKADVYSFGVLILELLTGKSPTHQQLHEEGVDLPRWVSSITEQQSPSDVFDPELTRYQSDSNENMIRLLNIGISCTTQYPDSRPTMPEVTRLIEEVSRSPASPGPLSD

How the values were obtained:
[1] = target: KIN7-YFP^C (coding region of KIN7 in pSPYCE(M)) (Arabidopsis thaliana) (UniProt Q9M8T0); experiment: split reporter; BiFC in transformed Arabidopsis protoplasts; YNE and YCE fusions; confocal microscopy, 60x objective
[2] = target: LRR1-YFP^C (coding region of LRR1 in pSPYCE(M)) (Arabidopsis thaliana) (UniProt Q9FMD7); experiment: as above
[3] = target: KIN7-YFP^C (coding region of KIN7 in pSPYCE(M)) (Arabidopsis thaliana) (UniProt Q9M8T0); experiment: split reporter; BiFC in Nicotiana benthamiana leaves infiltrated with Agrobacterium GV3101; YFP^N (pSPYNE173) and YFP^C (pSPYCE(M)) fusions; confocal microscopy
[4] = target: LRR1-YFP^C (coding region of LRR1 in pSPYCE(M)) (Arabidopsis thaliana) (UniProt Q9FMD7); experiment: as above
[5] = target: LRR1-GST recombinant protein (coding region of LRR1 in pGEX-4T-1) (Arabidopsis thaliana) (UniProt Q9FMD7); experiment: pull-down; Glutathione beads with LRR1-GST incubated with His-tagged proteins in 1x PBS at 4 °C for 2 h; washed five times with 1x PBS, 0.1% Triton X-100; immunoblot with anti-GST or anti-His; both purified

binding [1] | binding [2] | binding [3] | binding [4] | binding [5] | Binder
binds | binds | binds | binds | – | PYL6-YFP^N (coding region of PYL6 in pSPYNE173) (receptor, UniProt Q8S8E3 1-215) MPTSIQFQRSSTAAEAANATVRNYPHHHQKQVQKVSLTRGMADVPEHVELSHTHVVGPSQCFSVVVQDVEAPVSTVWSILSRFEHPQAYKHFVKSCHVVIGDGREVGSVREVRVVSGLPAAFSLERLEIMDDDRHVISFSVVGGDHRLMNYKSVTTVHESEEDSDGKKRTRVVESYVVDVPAGNDKEETCSFADTIVRCNLQSLAKLAENTSKFS
– | – | – | – | binds | PYL6-His recombinant protein (coding region of PYL6 in pET28a) (receptor, UniProt Q8S8E3 1-215) MPTSIQFQRSSTAAEAANATVRNYPHHHQKQVQKVSLTRGMADVPEHVELSHTHVVGPSQCFSVVVQDVEAPVSTVWSILSRFEHPQAYKHFVKSCHVVIGDGREVGSVREVRVVSGLPAAFSLERLEIMDDDRHVISFSVVGGDHRLMNYKSVTTVHESEEDSDGKKRTRVVESYVVDVPAGNDKEETCSFADTIVRCNLQSLAKLAENTSKFS

These are yes or no findings as the source states them, for the method shown. Binding calls can cover weak binding; strength is not graded here. Sequences can lack the tags named with a protein. For some assays here: In cells and extracts the contact can be indirect.
